Here are results for 1 molecule from PMC10896247.

In experiment [1] the target is T1, human ferroptosis suppressive protein 1 (human), Q9BRQ8.
T1 chain: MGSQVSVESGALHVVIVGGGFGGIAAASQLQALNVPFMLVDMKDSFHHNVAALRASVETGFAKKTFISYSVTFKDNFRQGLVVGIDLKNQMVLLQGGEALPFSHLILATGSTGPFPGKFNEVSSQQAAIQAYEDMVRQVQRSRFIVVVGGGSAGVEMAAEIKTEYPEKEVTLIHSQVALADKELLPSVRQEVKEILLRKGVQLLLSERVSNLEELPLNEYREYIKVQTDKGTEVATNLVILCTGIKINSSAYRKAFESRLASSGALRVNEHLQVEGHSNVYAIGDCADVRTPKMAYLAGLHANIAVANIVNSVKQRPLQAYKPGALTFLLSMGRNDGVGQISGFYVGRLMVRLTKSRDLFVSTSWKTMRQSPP
Description: SEC; Superdex 200 10/300 GL, 25 mM Tris-HCl pH 8.0, 150 mM NaCl, 2 mM DTT; oligomeric state judged from the elution volume; both purified. The conditions noted are these: remark: other sources report otherwise. (In general: SEC sorts molecules by how far they enter the pores of the column.)

Experiment [2] has as its target T1, human ferroptosis suppressive protein 1 …. The experiment in a line: crystal structure; hFSP1 with 6-OH-FAD and NADH, 1.75 Å, space group P 65 2 2; one molecule in the asymmetric unit; both purified. Conditions: remark: other sources report otherwise.

These are yes or no findings as the source states them, for the method shown.

B1: human ferroptosis suppressive protein 1, Q9BRQ8 1-373 (enzyme)
chain: T1 chain
As to B1, the binding result in experiment [1] and in experiment [2] was “no binding” throughout.
